# Results are given in words; binding and its absence hold for the method and conditions named. Binding seen in cells or lysates may run through a third protein. Some entries that bind do so weakly or less than the wild type. Tags and fused reporters may be left off the sequences shown.
# Chains of the proteins cited; added tags and fusions are not shown.
# UniProt P40562: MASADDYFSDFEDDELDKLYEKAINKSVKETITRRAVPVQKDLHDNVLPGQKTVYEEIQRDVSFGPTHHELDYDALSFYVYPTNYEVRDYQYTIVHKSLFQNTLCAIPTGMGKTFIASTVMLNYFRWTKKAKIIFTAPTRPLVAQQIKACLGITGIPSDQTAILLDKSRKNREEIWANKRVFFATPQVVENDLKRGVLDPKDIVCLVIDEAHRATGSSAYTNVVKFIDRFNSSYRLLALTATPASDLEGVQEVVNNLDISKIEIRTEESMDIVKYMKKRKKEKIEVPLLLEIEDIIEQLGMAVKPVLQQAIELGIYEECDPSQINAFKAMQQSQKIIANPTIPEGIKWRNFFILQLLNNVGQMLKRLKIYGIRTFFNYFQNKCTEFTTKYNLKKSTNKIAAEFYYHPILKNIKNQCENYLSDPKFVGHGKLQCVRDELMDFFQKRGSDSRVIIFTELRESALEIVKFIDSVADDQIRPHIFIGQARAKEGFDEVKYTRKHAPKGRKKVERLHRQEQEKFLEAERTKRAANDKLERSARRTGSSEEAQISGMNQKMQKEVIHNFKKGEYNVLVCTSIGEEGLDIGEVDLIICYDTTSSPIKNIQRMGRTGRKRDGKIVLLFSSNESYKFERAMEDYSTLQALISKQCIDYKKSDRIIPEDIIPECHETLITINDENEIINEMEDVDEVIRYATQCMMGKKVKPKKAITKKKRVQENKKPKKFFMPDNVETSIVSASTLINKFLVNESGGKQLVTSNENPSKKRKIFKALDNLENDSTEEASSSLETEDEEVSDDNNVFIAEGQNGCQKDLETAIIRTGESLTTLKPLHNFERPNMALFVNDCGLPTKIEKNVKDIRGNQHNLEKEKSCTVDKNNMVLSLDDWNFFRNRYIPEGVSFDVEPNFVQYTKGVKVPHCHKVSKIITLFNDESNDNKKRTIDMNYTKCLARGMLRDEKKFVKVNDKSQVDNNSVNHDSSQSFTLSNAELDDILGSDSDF
# T1: FLAG-tagged Mgm101 (budding yeast) (UniProt P32787)
# T1 sequence: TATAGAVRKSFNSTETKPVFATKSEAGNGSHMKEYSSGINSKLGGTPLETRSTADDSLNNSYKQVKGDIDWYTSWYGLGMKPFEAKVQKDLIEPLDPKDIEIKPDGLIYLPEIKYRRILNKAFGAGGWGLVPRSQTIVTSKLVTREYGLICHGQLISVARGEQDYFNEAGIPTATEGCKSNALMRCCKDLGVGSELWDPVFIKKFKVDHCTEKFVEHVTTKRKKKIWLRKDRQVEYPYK
# Target: T1, FLAG-tagged Mgm101 (budding yeast)
# Assay: co-IP; 6 mg whole cell extract of galactose-induced cells incubated with Anti-FLAG M2 Affinity Gel; lysis buffer 50 mM sodium phosphate pH 7.4, 1 mM EDTA, 5% glycerol, protease inhibitors, nuclease mix; blotted for 6xHis
row,binding,Molecule
1,binds,chromosomally 6xHis-tagged Mph1 (from UniProt P40562 1-993)
2,binds,"chromosomally 6xHis-tagged Msh6 (protein, UniProt Q03834 1-1242) MAPATPKTSKTAHFENGSTSSQKKMKQSSLLSFFSKQVPSGTPSKKVQKPTPATLENTATDKITKNPQGGKTGKLFVDVDEDNDLTIAEETVSTVRSDIMHSQEPQSDTMLNSNTTEPKSTTTDEDLSSSQSRRNHKRRVNYAESDDDDSDTTFTAKRKKGKVVDSESDEDEYLPDKNDGDEDDDIADDKEDIKGELAEDSGDDDDLISLAETTSKKKFSYNTSHSSSPFTRNISRDNSKKKSRPNQAPSRSYNPSHSQPSATSKSSKFNKQNEERYQWLVDERDAQRRPKSDPEYDPRTLYIPSSAWNKFTPFEKQYWEIKSKMWDCIVFFKKGKFFELYEKDALLANALFDLKIAGGGRANMQLAGIPEMSFEYWAAQFIQMGYKVAKVDQRESMLAKEMREGSKGIVKRELQCILTSGTLTDGDMLHSDLATFCLAIREEPGNFYNETQLDSSTIVQKLNTKIFGAAFIDTATGELQMLEFEDDSECTKLDTLMSQVRPMEVVMERNNLSTLANKIVKFNSAPNAIFNEVKAGEEFYDCDKTYAEIISSEYFSTEEDWPEVLKSYYDTGKKVGFSAFGGLLYYLKWLKLDKNLISMKNIKEYDFVKSQHSMVLDGITLQNLEIFSNSFDGSDKGTLFKLFNRAITPMGKRMMKKWLMHPLLRKNDIESRLDSVDSLLQDITLREQLEITFSKLPDLERMLARIHSRTIKVKDFEKVITAFETIIELQDSLKNNDLKGDVSKYISSFPEGLVEAVKSWTNAFERQKAINENIIVPQRGFDIEFDKSMDRIQELEDELMEILMTYRKQFKCSNIQYKDSGKEIYTIEIPISATKNVPSNWVQMAANKTYKRYYSDEVRALARSMAEAKEIHKTLEEDLKNRLCQKFDAHYNTIWMPTIQAISNIDCLLAITRTSEYLGAPSCRPTIVDEVDSKTNTQLNGFLKFKSLRHPCFNLGATTAKDFIPNDIELGKEQPRLGLLTGANAAGKSTILRMACIAVIMAQMGCYVPCESAVLTPIDRIMTRLGANDNIMQGKSTFFVELAETKKILDMATNRSLLVVDELGRGGSSSDGFAIAESVLHHVATHIQSLGFFATHYGTLASSFKHHPQVRPLKMSILVDEATRNVTFLYKMLEGQSEGSFGMHVASMCGISKEIIDNAQIAADNLEHTSRLVKERDLAANNLNGEVVSVPGGLQSDFVRIAYGDGLKNTKLGSGEGVLNYDWNIKRNVLKSLFSIIDDLQS"
3,binds,"chromosomally 6xHis-tagged Msh2 (protein, UniProt P25847 1-964) MSSTRPELKFSDVSEERNFYKKYTGLPKKPLKTIRLVDKGDYYTVIGSDAIFVADSVYHTQSVLKNCQLDPVTAKNFHEPTKYVTVSLQVLATLLKLCLLDLGYKVEIYDKGWKLIKSASPGNIEQVNELMNMNIDSSIIIASLKVQWNSQDGNCIIGVAFIDTTAYKVGMLDIVDNEVYSNLESFLIQLGVKECLVQDLTSNSNSNAEMQKVINVIDRCGCVVTLLKNSEFSEKDVELDLTKLLGDDLALSLPQKYSKLSMGACNALIGYLQLLSEQDQVGKYELVEHKLKEFMKLDASAIKALNLFPQGPQNPFGSNNLAVSGFTSAGNSGKVTSLFQLLNHCKTNAGVRLLNEWLKQPLTNIDEINKRHDLVDYLIDQIELRQMLTSEYLPMIPDIRRLTKKLNKRGNLEDVLKIYQFSKRIPEIVQVFTSFLEDDSPTEPVNELVRSVWLAPLSHHVEPLSKFEEMVETTVDLDAYEENNEFMIKVEFNEELGKIRSKLDTLRDEIHSIHLDSAEDLGFDPDKKLKLENHHLHGWCMRLTRNDAKELRKHKKYIELSTVKAGIFFSTKQLKSIANETNILQKEYDKQQSALVREIINITLTYTPVFEKLSLVLAHLDVIASFAHTSSYAPIPYIRPKLHPMDSERRTHLISSRHPVLEMQDDISFISNDVTLESGKGDFLIITGPNMGGKSTYIRQVGVISLMAQIGCFVPCEEAEIAIVDAILCRVGAGDSQLKGVSTFMVEILETASILKNASKNSLIIVDELGRGTSTYDGFGLAWAIAEHIASKIGCFALFATHFHELTELSEKLPNVKNMHVVAHIEKNLKEQKHDDEDITLLYKVEPGISDQSFGIHVAEVVQFPEKIVKMAKRKANELDDLKTNNEDLKKAKLSLQEVNEGNIRLKALLKEWIRKVKEEGLHDPSKITEEASQHKIQELLRAIANEPEKENDNYLKYIKALLL"

# — paper PMC3415447
